Laboratory results: patent US5885818

Tested on: T1, AgeI methyltransferase (AgeIM) (Agrobacterium gelatinovorum)
T1 sequence: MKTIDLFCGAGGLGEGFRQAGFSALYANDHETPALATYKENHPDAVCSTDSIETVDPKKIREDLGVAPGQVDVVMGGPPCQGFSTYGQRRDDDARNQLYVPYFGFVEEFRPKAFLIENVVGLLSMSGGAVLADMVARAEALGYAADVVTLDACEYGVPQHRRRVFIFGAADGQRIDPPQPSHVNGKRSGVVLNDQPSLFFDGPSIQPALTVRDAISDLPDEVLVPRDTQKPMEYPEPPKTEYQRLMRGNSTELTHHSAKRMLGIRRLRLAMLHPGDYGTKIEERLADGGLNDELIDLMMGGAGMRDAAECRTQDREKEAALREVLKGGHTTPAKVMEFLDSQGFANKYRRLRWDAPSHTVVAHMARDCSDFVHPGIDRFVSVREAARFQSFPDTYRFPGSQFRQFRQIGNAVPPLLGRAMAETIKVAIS
Test: activity in cells
Details: plasmids #1 and #26 carrying ageIM fully resistant to AgeI digestion (in vivo modification); protein in cells; only the site is given

In the case of “GACCGGTC (double strand) [AgeI linker sites in plasmid pAge-2]”, the “activity on this sequence” value is reported as “active”.

Where a protein sequence is shown, tags need not be part of it.
